Measured values as given in PubChem BioAssay AID504467 (National Center for Advancing Translational Sciences (NCATS), 2011).
The whole screen tested about 330,000 compounds, of which about 7,700 (2.3%) were called active. The inconclusive results got no clear call from the source; some entries with a clear call stand among them for comparison. Calls follow the shape of the dose curve; as a rule, active = well fitted inhibition curve with a large enough effect; inconclusive = small, poorly fitted or top-dose-only effect, or effect the other way; inactive = flat fitted curve, though single readings scatter. A potency beside an inconclusive call is a rough fit, not a confirmed value.

Assay: qHTS screen for small molecules that inhibit ELG1-dependent DNA repair in human embryonic kidney (HEK293T) cells expressing luciferase-tagged ELG1; also: nearly all actives have a fitted effect of over 55% in size
Conditions: HEK293T ELG1-luciferase reporter, luminescence, 16 h, DNA damage induced by 5-fluorouridine; activity change, negative = inhibition: at 46.1 µM (top of the series)
Outline: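 Luminescence from the luciferase reporter, measured 30 min after ONE-Glo reagent at room temperature, was the read-out. Beforehand, 2,000 cells per well were exposed for 16 hr at 37 °C to 5-fluorouridine together with compound or vehicle.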
% is scaled to controls: 0 for no effect and ±100 for the full control effect; potency is read from the fitted curve at half-maximal effect.

Compound	Potency	activity change, negative = inhibition
COc1cc(C(=O)NCc2nnc(SCC(=O)Nc3nc4ccccc4s3)o2)cc(OC)c1OC	inconclusive: 25.9 µM [inhibitor, single point]	–
CC(=O)c1ccc(Nc2ccc(-c3ccccc3F)nn2)cc1	inconclusive: 2.59 µM [activator, full curve]	–
O=C(NCc1n[nH]c(=O)c2ccccc12)C1CC(=O)N(c2ccc(Cl)cc2)C1 (centres undefined)	–	inactive: 3.36%
Cc1ccc(-c2csc3nc(=O)c(C)nn23)cc1	inconclusive: 13 µM [activator, partial curve, poor fit]	–
CCCCOC(=O)c1ccc(OC(=O)N2CCOCC2)cc1	inconclusive: 9.2 µM [activator, partial curve]	–
COc1cc2ccccc2cc1C(=O)Nc1ccccc1C	inconclusive: 9.2 µM [activator, partial curve]	–
CCCN(CC(=O)Nc1ccc(Cl)cc1Cl)Cc1cc(=O)n2ccsc2n1	inconclusive: 29.1 µM [inhibitor, single point]	–
Nc1nc(N2CCCCC2)nc2ccccc12	–	inactive: 1.76%
CC(=O)Nc1cc(-c2nc3ccccc3o2)ccc1Cl	inconclusive: 18.3 µM [activator, single point]	–
Cc1csc2c(N3CCN(C(=O)NC(C)(C)C)CC3)ncnc12	inconclusive: 20.6 µM [inhibitor, partial curve, poor fit]	–
O=C(c1cc2ccccc2o1)c1nc2c(n1O)CCCCC2	inconclusive: 18.4 µM [activator, partial curve]	–
COc1ccc(S(=O)(=O)N2CCc3ccccc32)cc1C(=O)NCCc1ccccn1	active: 18.3 µM	–
O=C(Nc1ccc(Br)cn1)c1ccc(Br)s1	inconclusive: 4.11 µM [activator, full curve]	–
O=C1CCCN2N=C(SCC(=O)Nc3nccs3)SC2=N1	inconclusive: 20.6 µM [inhibitor, single point]	–
CCC(C(=O)OCC(=O)N1CCN(c2ccc(OC)cc2)CC1)c1ccccc1 (centres undefined)	–	inactive: -12.7%
CC(=O)NCC(=O)NC1CCCc2c1cnn2-c1ccc(C(C)(C)C)cc1 (centres undefined)	–	inactive: -20.4%
COc1ccc2cc(C3=CC(=O)C[C@H](c4ccc5c(c4)OCO5)C3)ccc2c1	inconclusive: 3.26 µM [inhibitor, single point]	–
Cc1cc2nc3c(nc2cc1C)CCCC3	inconclusive: 13 µM [activator, partial curve]	–
Cc1cc(C)cc(NC(=O)NCC2CCN(Cc3cc(C)ccc3C)CC2)c1	–	inactive: -6.68%
CCOc1ccc(C(=O)C(CCC(CN(C)C)C(=O)c2ccc(OCC)cc2)CN(C)C)cc1 (centres undefined)	inconclusive: 25.9 µM [inhibitor, single point]	–
COc1cccc(C(=O)Oc2cc3c4c(c2)C(C)=CC(C)(C)N4C(=O)C3=O)c1	inconclusive: 7.08 µM [inhibitor, partial curve]	–
O=C(Nc1nnc(Cc2ccc([N+](=O)[O-])cc2)s1)c1ccc2c(c1)OCO2	–	inactive: 13.4%
CSc1ccccc1NC(=O)COc1ccc(Cl)cc1Cl	inconclusive: 16.4 µM [activator, single point]	–

Looked up above:
O=C(c1cc2ccccc2o1)c1nc2c(n1O)CCCCC2 – Potency: inconclusive: 18.4 µM [activator, partial curve]
CC(=O)Nc1cc(-c2nc3ccccc3o2)ccc1Cl – Potency: inconclusive: 18.3 µM [activator, single point]
Nc1nc(N2CCCCC2)nc2ccccc12 – activity change, negative = inhibition: inactive: 1.76%

(list continues)

Compound	Potency	activity change, negative = inhibition
COc1ccc(NC(=O)COC(=O)CCC2CCCCC2)cc1	inconclusive: 14.6 µM [activator, partial curve, poor fit]	–
COCc1cc(=O)[nH]c(SCCS(=O)(=O)c2ccc(Cl)cc2Cl)n1	inconclusive: 2.91 µM [activator, partial curve, poor fit]	–
S=C(NCc1ccc2c(c1)OCO2)NC1CC1	–	inactive: 1.49%
COc1ccccc1NC(=O)Nc1nc(CC(=O)Nc2ccc(OC)c(OC)c2)cs1	–	inactive: -25.9%
COc1ccc(N(CC(=O)Nc2cccc(OC)c2)S(=O)(=O)c2c(C)nn(C)c2C)cc1	–	inactive: -20%
COc1ccc(CNC(=O)C2CCCN(S(=O)(=O)c3cc(C)ccc3OC)C2)cc1 (centres undefined)	inconclusive: 23.1 µM [inhibitor, single point]	–
CN(C)c1ccc(C=Nc2cnn(C)c2C(N)=O)cc1	inconclusive: 20.6 µM [activator, partial curve]	–
Cc1c(C(=O)N2CCC(C(N)=O)CC2)oc2ccc(Br)cc12	inconclusive: 16.4 µM [activator, partial curve, poor fit]	–
COC(=O)c1ccc2nc(C)c(C)nc2c1	inconclusive: 29.1 µM [activator, partial curve, poor fit]	–
CCOC(=O)/C(C#N)=C/c1ccc(N2CCN(C)CC2)cc1	inconclusive: 18.4 µM [activator, single point]	–
COc1ccc(C(=O)OCc2csc(C)n2)c(O)c1	inconclusive: 20.6 µM [activator, partial curve]	–
COc1ccc(Cl)cc1N(CC(=O)N/N=C/c1ccc(OCC(N)=O)cc1)S(C)(=O)=O	inconclusive: 7.3 µM [activator, partial curve, poor fit]	–
Cc1sc2nc(CN3CCN(S(=O)(=O)c4cccc5nonc45)CC3)[nH]c(=O)c2c1C	inconclusive: 29.1 µM [inhibitor, single point]	–
O=C(O)CCCn1c(O)c(C=C2N=c3ccccc3=N2)sc1=S	inconclusive: 25.9 µM [activator, single point]	–
COC(=O)c1cccc(N(CC(=O)NC2CCCC2)C(=O)CCC(=O)Nc2cc(C)on2)c1	–	inactive: 1.58%
COCCCNC(=O)c1c(N)n(/N=C/c2ccccn2)c2nc3ccccc3nc12	active: 4.61 µM	–
CC(SC1=NCCS1)C(=O)Nc1nnc(-c2ccc(F)cc2)s1 (centres undefined)	inconclusive: 8.2 µM [activator, single point]	–
CCc1ccc(C(=O)Nc2cc(C)ccc2F)s1	inconclusive: 20.6 µM [activator, partial curve]	–
CCN(CC)c1ccc(/C=N/NC(=O)c2cccc(S(=O)(=O)N3CCOCC3)c2)cc1	inconclusive: 29.1 µM [inhibitor, single point]	–
O=c1cc(-c2ccc(O)c(O)c2)oc2c1ccc1ccccc12	inconclusive: 23.1 µM [inhibitor, single point]	–
Cc1ccc(NS(=O)(=O)c2ccc(NC(=O)C(C)Sc3ccc(Cl)cc3)cc2)c(C)c1 (centres undefined)	active: 20.6 µM	–
CC1CCN(C(C(=O)O)c2ccccc2)CC1 (centres undefined)	–	inactive: 5.41%
CC1(O)c2ccccc2C(=O)N1Cc1ccccc1 (centres undefined)	inconclusive: 0.366 µM [inhibitor, partial curve, poor fit]	–

Compound	Potency	activity change, negative = inhibition
COc1ccc(NC(C)=O)cc1NS(=O)(=O)c1ccc2c(c1)OCCO2	inconclusive: 16.4 µM [activator, partial curve, poor fit]	–
CCCc1cc2c(cc1NC(=O)c1ccccc1C)OCO2	inconclusive: 5.62 µM [inhibitor, single point]	–
O=c1/c(=C/c2ccc([N+](=O)[O-])cc2)sc2n1CCCN=2	inconclusive: 18.4 µM [activator, partial curve]	–
Cc1cc(C)c2cc(CN(CCO)Cc3nnnn3Cc3ccccc3)c(=O)[nH]c2c1	–	inactive: -16.4%
O=C(COc1ccccc1)NCC(=O)N/N=C/c1ccc(Br)cc1	–	inactive: 2.36%
Cc1cccc(N2CCN(C(=O)c3cn(C)c(=O)c4c3c3ccccc3n4C)CC2)c1C	active: 23.1 µM	–
O=C(NC1CCCCC1)c1cc2nc3c(c(C(F)(F)F)n2n1)CCCC3	inconclusive: 8.2 µM [activator, partial curve]	–
CC(C)(C)c1ccc(/C=N/OCC(=O)NCc2ccc(F)cc2)cc1	inconclusive: 29.1 µM [inhibitor, single point]	–
CCC1SC2=NC(C)=C(C(=O)OCCOC)C(/C=C/c3ccccc3OC)N2C1=O (centres undefined)	inconclusive: 25.9 µM [inhibitor, single point]	–
CC(=O)Nc1ccc(NC(=O)C(C)OC(=O)c2ccc(N(C)C)cc2)cc1 (centres undefined)	inconclusive: 32.6 µM [inhibitor, partial curve, poor fit]	–
Clc1cccc(-c2ccc(C3Nc4cccc5cccc(c45)N3)o2)c1	–	inactive: 21%
CC[C@]12c3[nH]c4cc(CCC(=O)N(C)C)ccc4c3CCN1C(=O)[C@@H](CC(=O)NC/C=C(\C)CCC=C(C)C)C[C@@H]2C(=O)N1CCN(C(=O)C2CC2)CC1	inconclusive: 20.6 µM [inhibitor, partial curve]	–
Nc1ccc(SCC(=O)Nc2cccc([N+](=O)[O-])c2)cc1	–	inactive: 12.9%
Cc1ccc(S(=O)(=O)NC(CC(=O)O)c2ccco2)cc1 (centres undefined)	inconclusive: 18.4 µM [activator, partial curve, poor fit]	–
CCOC(=O)Nc1ccc2c(c1)N(C(=O)N(C)C)c1ccccc1CC2	–	inactive: -10.1%
CC(=O)Nc1ccc(-c2csc(NC=C3C(=O)OC(C)(C)OC3=O)n2)cc1	inconclusive: 16.4 µM [activator, partial curve]	–
CCn1cc(S(=O)(=O)Nc2ccc(Cl)cc2F)cn1	–	inactive: 21%
O/N=C(/CCc1ccccc1)c1ccc2c(c1)OCCO2	inconclusive: 14.6 µM [activator, partial curve]	–
COc1cc2c(cc1OC)C(c1ccccc1)N(C(=O)c1ccccc1F)CC2 (centres undefined)	–	inactive: -26.8%
O=C(c1[nH]nc2c1CCc1ccccc1-2)N1CCN(Cc2ccc3c(c2)OCO3)CC1	active: 9.2 µM	–
CCc1nc2ccc(C(=O)NCc3ccc(C)o3)cc2nc1CC	–	inactive: -7.45%
CC(=O)c1c(C)c(C)c2n1CCn1c(C)ccc1-2	inconclusive: 0.231 µM [activator, single point]	–
Cn1cc(C(=O)Nc2ccc(Cl)cc2)c(C(F)(F)F)n1	inconclusive: 18.3 µM [inhibitor, partial curve, poor fit]	–
